Assay results: the supplement of paper PMC11006884
This is a selection; strong and weak results do not stand in their true shares. Single values of this set are uncertain.

By UniProt entry, the sequences of proteins in these tests, tags left out. Where a name states a change or a piece, a line headed by the entry shows the natural chain unless it says otherwise.
UniProt Q9UKF6: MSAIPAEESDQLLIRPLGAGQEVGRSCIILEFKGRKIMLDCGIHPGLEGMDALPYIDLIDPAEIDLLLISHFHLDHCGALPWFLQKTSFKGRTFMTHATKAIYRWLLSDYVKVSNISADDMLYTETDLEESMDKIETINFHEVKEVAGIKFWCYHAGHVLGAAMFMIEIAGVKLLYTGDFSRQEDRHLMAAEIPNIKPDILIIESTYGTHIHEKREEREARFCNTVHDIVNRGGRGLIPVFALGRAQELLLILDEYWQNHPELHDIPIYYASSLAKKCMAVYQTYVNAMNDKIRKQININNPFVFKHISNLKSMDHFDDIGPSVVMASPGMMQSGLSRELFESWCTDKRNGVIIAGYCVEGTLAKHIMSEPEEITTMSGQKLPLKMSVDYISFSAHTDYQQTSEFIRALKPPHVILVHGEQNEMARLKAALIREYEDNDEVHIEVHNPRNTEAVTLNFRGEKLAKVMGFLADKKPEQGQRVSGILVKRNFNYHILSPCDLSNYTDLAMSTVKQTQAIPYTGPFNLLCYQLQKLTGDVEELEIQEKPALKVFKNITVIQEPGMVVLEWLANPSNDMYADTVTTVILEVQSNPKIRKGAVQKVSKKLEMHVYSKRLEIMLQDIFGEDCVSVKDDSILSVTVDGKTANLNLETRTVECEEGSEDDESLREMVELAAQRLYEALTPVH
UniProt Q9UPW5: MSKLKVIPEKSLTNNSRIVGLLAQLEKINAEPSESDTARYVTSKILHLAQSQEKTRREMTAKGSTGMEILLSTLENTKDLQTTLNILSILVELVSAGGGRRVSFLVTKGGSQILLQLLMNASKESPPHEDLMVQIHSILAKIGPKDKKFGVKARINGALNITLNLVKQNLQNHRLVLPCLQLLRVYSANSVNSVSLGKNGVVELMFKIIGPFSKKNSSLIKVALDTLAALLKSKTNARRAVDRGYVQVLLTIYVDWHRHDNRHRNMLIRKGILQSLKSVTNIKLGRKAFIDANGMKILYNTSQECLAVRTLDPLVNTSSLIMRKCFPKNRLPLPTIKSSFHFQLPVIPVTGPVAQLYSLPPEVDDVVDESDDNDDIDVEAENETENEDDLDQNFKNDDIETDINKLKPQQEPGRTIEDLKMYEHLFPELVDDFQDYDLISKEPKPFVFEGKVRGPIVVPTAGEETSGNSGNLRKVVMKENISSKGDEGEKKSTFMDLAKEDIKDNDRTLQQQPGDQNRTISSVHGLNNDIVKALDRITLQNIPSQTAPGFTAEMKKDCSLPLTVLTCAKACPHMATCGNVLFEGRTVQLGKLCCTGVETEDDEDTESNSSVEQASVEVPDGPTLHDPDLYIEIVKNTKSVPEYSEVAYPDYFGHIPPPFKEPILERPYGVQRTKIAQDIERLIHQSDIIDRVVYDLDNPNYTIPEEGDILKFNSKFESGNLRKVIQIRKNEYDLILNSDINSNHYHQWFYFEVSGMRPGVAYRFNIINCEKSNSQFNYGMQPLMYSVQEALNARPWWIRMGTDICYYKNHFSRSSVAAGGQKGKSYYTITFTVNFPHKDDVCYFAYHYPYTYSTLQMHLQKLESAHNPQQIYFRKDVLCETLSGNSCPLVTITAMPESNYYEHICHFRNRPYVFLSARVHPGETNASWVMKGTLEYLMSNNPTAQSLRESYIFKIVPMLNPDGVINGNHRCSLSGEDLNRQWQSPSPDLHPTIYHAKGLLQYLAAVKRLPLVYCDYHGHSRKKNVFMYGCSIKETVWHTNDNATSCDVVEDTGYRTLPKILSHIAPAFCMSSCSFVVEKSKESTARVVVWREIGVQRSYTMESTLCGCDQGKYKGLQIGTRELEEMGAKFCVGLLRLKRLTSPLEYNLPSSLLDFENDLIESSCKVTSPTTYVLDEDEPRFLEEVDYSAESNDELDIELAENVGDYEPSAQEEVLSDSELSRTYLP
UniProt Q9Y3D2: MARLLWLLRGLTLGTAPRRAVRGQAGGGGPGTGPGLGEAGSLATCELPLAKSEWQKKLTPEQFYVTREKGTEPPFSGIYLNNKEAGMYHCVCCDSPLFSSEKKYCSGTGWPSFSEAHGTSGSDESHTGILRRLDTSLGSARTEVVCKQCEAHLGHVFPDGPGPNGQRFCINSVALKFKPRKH
UniProt Q9Y448: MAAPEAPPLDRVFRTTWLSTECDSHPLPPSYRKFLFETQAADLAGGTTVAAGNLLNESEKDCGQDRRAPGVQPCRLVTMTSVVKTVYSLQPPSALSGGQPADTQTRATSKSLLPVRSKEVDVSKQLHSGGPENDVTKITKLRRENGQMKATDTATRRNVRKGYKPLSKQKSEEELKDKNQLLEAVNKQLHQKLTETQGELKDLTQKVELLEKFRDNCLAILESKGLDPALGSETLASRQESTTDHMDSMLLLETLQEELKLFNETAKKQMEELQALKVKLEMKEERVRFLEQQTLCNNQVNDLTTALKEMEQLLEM
UniProt Q9Y2S7: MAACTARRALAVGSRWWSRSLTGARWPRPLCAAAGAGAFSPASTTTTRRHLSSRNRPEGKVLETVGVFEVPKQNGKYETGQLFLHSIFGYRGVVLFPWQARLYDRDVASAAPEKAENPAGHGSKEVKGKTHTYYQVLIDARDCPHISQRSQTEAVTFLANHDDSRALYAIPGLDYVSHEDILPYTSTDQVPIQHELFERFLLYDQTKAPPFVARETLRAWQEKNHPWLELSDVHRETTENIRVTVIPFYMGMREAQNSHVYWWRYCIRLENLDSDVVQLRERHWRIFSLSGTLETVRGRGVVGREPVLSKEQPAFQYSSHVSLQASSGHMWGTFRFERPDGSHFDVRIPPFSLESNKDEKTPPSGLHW
UniProt Q9Y2Q3: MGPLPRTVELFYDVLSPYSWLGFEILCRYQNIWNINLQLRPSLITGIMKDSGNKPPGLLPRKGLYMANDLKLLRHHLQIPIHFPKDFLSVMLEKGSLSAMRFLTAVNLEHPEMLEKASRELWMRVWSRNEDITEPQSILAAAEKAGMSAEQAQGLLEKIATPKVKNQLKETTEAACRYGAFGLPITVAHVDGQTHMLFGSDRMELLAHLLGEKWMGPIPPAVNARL
UniProt Q9UPT9: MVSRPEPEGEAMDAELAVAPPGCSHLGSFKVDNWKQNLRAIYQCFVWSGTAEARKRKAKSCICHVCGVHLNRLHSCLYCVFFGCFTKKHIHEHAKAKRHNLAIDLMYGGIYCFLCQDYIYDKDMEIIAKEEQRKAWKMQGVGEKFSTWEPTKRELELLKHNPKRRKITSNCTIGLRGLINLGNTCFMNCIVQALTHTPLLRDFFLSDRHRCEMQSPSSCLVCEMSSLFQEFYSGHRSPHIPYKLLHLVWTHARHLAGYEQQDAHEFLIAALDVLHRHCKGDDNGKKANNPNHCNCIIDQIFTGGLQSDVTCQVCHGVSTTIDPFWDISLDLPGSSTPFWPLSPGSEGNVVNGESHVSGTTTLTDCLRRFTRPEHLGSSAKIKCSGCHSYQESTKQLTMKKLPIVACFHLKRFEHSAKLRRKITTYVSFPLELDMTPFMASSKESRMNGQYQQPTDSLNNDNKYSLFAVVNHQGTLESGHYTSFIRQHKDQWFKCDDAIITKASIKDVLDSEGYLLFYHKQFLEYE
UniProt Q9UIA9: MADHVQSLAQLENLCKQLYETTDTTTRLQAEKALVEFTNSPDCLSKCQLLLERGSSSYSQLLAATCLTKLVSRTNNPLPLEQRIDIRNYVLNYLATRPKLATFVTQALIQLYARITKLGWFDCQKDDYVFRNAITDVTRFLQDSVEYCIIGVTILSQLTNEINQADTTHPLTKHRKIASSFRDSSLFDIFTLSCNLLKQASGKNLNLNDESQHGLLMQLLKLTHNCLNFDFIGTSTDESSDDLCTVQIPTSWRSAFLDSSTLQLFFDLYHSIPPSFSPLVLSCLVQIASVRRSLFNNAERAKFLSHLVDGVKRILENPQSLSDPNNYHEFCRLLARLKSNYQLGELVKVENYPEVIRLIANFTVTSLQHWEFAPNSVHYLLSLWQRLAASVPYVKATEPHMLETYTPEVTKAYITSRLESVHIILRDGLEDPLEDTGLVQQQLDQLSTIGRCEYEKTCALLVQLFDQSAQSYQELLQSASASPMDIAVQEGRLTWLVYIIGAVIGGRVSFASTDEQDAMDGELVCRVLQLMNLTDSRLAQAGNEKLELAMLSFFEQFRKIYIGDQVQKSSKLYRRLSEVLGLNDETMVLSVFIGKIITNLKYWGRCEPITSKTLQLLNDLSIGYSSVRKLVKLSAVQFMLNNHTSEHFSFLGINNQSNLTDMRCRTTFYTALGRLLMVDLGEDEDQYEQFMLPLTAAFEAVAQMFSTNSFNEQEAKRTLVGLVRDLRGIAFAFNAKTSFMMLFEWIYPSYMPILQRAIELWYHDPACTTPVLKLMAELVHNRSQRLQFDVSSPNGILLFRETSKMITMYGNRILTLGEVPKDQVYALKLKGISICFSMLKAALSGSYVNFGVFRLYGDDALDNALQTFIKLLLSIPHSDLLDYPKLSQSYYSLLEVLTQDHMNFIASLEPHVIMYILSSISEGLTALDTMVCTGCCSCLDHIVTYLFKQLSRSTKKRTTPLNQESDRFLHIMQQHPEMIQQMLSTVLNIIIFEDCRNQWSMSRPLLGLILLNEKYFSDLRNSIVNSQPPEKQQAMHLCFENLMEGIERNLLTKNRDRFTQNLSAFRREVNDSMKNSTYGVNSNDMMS
UniProt Q9Y217: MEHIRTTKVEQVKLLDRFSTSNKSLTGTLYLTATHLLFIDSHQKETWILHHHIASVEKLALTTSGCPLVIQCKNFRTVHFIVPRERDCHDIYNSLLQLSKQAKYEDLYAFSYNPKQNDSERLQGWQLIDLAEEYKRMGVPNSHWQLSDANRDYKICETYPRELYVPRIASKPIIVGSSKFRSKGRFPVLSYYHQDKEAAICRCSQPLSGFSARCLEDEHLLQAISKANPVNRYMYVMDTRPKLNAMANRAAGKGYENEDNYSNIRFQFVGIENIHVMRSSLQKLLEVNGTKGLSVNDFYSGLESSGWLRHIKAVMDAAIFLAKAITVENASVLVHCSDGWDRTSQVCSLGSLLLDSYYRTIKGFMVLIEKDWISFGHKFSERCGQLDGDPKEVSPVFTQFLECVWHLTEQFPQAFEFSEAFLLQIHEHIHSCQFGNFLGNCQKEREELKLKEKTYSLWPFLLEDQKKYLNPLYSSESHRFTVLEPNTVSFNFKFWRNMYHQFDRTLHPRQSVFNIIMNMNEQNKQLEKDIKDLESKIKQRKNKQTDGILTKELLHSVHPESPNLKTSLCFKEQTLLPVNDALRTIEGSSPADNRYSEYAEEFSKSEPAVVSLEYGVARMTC
UniProt Q9UQE7: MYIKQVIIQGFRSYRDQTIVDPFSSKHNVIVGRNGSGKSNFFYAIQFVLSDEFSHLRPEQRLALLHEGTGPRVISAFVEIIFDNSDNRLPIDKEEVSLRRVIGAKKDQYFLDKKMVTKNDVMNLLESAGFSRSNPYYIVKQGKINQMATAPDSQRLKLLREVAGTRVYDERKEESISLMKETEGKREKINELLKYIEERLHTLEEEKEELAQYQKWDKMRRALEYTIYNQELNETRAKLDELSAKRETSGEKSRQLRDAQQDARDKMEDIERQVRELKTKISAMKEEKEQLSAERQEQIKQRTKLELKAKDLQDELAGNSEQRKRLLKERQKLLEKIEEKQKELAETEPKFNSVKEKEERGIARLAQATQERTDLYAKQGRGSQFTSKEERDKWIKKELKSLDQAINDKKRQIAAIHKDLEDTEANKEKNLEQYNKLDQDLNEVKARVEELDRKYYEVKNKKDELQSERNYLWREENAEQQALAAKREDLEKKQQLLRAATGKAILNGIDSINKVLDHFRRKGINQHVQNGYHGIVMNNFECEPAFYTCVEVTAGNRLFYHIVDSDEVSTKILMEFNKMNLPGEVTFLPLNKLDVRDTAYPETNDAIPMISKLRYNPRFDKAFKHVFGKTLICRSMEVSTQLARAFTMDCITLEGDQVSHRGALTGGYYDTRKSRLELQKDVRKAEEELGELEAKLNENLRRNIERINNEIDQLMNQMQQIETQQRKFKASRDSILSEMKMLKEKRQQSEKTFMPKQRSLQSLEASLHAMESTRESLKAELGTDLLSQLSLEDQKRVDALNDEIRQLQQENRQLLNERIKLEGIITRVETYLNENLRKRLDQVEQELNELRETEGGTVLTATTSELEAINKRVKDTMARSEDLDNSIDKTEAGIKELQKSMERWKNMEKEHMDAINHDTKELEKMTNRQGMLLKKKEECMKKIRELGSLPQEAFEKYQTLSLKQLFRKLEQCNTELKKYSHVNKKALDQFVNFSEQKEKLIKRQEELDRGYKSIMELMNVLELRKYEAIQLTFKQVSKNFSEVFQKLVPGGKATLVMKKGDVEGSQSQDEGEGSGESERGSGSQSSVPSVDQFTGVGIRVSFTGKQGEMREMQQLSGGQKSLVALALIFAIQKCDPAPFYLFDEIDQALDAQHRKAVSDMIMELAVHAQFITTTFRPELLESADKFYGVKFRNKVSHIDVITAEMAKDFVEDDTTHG

Compound: COC(=O)/C=C/c1ccccc1 [methyl cinnamate]
Experiment: log2 ratio of iodoacetamide-alkyne labeling of the cysteine site, DMSO over compound (competition); higher = stronger covalent engagement of the cysteine by the compound, active = 1 or more
Conditions: 500 µM; treatment time 1 h; system: HEK293T cell lysate
Method in brief: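 HEK293T lysate (2 mg/mL) was treated with DMSO or electrophile (500 µM, 1 h, ambient temperature), then iodoacetamide alkyne (1 h), clicked to sCIP-TMT reagents, pooled, trypsin-digested overnight at 37 °C, streptavidin-enriched and acid-eluted. Peptides were run on Orbitrap Eclipse LC-MS/MS with FAIMS and quantified in FragPipe. The log2 competition ratio per cysteine is mean control-channel over mean compound-channel reporter intensity. Duplicate channels and three replicates were used, and cysteines quantified in only one replicate were excluded.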

log2 ratio of iodoacetamide-alkyne labeling, inactive:
CPSF3 C223 (UniProt Q9UKF6) 0.0639
AGTPBP1 C558 (UniProt Q9UPW5) 0.207
MSRB2 C45 (UniProt Q9Y3D2) -0.0521
UniProt Q9Y448_C296 0.0745
DDX41 C568 (UniProt Q9UJV9) 0.0681
POLDIP2 C143 (UniProt Q9Y2S7) 0.266
RRP7A C82 (UniProt Q9Y3A4) 0.216
GSTK1 C176 (UniProt Q9Y2Q3) 0.369
PRPF19 C230 (UniProt Q9UMS4) 0.284
USP22 C189 (UniProt Q9UPT9) -0.0563
XPO7 C15 (UniProt Q9UIA9) 0.0284
MTMR6 C214 (UniProt Q9Y217) -0.166
WNK2 C2062 (UniProt Q9Y3S1) 0.312
SMC3 C650 (UniProt Q9UQE7) -0.141
CIZ1 C252 (UniProt Q9ULV3) 0.195

Quoted from the listing for reference:
log2 ratio of iodoacetamide-alkyne labeling, inactive:
RRP7A C82 (UniProt Q9Y3A4) 0.216
GSTK1 C176 (UniProt Q9Y2Q3) 0.369
